According to paper PMC5124709:
No constants are given. Whether binding was seen depends on the method and setting. In cells and extracts the contact can be indirect. Some entries that bind do so weakly or less than the wild type. For some assays here: Where a sequence is shown, tags or fusion partners need not be part of it.

Protein sequences, listed by entry. Tags and fused reporters are not part of them. Residues count along the entry.
UniProt Q07009, residues 20-700: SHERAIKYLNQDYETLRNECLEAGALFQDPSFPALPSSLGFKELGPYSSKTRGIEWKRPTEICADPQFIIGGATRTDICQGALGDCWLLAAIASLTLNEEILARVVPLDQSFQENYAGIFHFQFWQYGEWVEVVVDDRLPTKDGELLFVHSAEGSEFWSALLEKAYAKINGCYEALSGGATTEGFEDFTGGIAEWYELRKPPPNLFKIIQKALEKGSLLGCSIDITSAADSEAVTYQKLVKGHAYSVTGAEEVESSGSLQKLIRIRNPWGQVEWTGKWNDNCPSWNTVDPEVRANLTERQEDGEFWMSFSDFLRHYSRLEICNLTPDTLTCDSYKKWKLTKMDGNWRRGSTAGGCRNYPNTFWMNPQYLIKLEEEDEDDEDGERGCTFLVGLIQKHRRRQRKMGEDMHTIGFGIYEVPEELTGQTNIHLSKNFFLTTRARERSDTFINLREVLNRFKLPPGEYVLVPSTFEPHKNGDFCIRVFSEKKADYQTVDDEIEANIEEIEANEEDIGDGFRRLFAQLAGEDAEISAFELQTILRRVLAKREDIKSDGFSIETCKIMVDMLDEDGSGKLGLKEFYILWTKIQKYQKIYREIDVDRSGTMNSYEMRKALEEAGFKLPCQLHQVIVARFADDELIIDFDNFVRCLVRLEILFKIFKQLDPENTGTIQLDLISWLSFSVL
UniProt P97571: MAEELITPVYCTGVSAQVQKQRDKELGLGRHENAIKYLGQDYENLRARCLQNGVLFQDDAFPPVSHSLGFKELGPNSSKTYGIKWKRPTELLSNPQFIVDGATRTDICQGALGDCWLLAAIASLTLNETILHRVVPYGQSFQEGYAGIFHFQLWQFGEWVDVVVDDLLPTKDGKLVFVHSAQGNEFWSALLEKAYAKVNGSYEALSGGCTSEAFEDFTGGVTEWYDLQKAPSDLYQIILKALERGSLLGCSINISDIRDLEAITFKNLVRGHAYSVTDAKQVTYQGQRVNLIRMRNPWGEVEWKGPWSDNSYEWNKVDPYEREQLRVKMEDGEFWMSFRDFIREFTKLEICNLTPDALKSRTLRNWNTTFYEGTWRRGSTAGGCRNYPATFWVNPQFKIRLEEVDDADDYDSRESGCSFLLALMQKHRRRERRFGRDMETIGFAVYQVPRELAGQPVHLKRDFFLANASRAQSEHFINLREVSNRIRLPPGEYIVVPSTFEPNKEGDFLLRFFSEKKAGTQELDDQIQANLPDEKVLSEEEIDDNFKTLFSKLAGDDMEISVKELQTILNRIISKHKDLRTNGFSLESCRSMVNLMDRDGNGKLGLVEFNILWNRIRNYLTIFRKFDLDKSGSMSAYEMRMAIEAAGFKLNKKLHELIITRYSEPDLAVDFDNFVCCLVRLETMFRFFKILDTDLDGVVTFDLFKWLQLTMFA

T1: Histone deacetylase 3 (HDAC3), endogenous (rat (endogenous in primary cultured cortical neurons)) (UniProt Q6P6W3)
T1 sequence: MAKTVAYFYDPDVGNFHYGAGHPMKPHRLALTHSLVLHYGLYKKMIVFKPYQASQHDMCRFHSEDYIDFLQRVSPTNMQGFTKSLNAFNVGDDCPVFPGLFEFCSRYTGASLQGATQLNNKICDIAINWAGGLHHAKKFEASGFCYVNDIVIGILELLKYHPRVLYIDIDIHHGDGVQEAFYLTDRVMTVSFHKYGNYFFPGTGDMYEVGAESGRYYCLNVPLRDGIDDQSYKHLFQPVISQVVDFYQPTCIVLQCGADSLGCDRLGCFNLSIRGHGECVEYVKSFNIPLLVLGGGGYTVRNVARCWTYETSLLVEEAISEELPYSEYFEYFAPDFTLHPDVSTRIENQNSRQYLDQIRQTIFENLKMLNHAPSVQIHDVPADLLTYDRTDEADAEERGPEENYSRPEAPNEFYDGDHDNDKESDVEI

B1: Histone deacetylase 3 (HDAC3), endogenous (protein, UniProt Q6P6W3 1-428)
chain: T1 sequence

Experiments:
[1] = molecular target: HA-tagged WT HDAC3 (human) (UniProt O15379); assay: co-IP; PC12 cells transfected with HA-HDAC3 constructs, PC performed 36 h later; whole cell lysates immunoprecipitated with anti-HA, immunoblotted with anti-calpain1 or anti-calpain2
[2] = molecular target: T1, Histone deacetylase 3 (HDAC3), endogenous (rat (endogenous in primary cultured cortical neurons)); assay: co-IP; as a1, cells under normal conditions (no preconditioning)
[3] = molecular target: T1, Histone deacetylase 3 (HDAC3), endogenous (rat (endogenous in primary cultured cortical neurons)); assay: co-IP; endogenous proteins; NP-40 lysate of cells with or without preconditioning (PC); anti-HDAC3, anti-calpain1 or anti-calpain2 overnight at 4°C, Protein A/G magnetic beads; immunoblot; interaction strengthened after PC
[4] = molecular target: calpain2, endogenous (rat (endogenous in primary cultured cortical neurons and in PC12 cells)) (UniProt Q07009); assay: as above
[5] = molecular target: calpain1, endogenous (rat (endogenous in primary cultured cortical neurons and in PC12 cells)) (UniProt P97571); assay: as above

Row | Molecule | binding [1] | binding [2] | binding [3] | binding [4] | binding [5]
1 | calpain1, endogenous (from UniProt P97571 1-713) (enzyme) | binds | binds weakly | binds |  | 
2 | calpain2, endogenous (from UniProt Q07009 20-700) (enzyme) | binds | binds weakly | binds |  | 
3 | B1 |  |  |  | binds | binds
